PMC4417968
These are yes or no findings as the source states them, for the method shown.

Columns and labels:
Assay in all cases: SEC; 25 uM previously purified monomeric fractions incubated in 50 mM phosphate buffer pH 8.0; TSK-Gel G2000 SWXL column equilibrated at pH 8.0, 0.5 mL/min; both purified
[1] = biological target: diphtheria toxin T domain single mutant E362Q (UniProt P00588)
[2] = biological target: diphtheria toxin T domain double mutant E349Q/D352N (UniProt P00588)
[3] = biological target: diphtheria toxin translocation domain (T domain), wild-type (UniProt P00588)

In the case of “diphtheria toxin T domain single mutant E362Q (from UniProt P00588 234-410) (domain or fragment)”, the binding [1] is reported as “no binding (condition: at pH 8.0 (25 uM))”.
With “diphtheria toxin T domain double mutant E349Q/D352N (from UniProt P00588 234-410) (domain or fragment)” the binding [2] was “no binding (condition: at pH 8.0 (25 uM))”.
“diphtheria toxin translocation domain (T domain), wild-type (from UniProt P00588 234-410) (domain or fragment)” was tested, and the binding [3] was “no binding (tested: 25 uM)”.
